For some of these results: Tags and fusion partners may be left off the protein sequences shown. For at least one entry, the source does not settle the construct or the ends of the probe. For some of these results: No signal at the amounts used counts as a negative. For some of these results: A weaker result is weaker than the reference pair of the same experiment.
Columns and labels:
[1] = system: T1, R2 reverse transcriptase P2 variant (N-terminal truncation); experiment: activity assay; settings: purified recombinant protein, protein details: His6, E. coli BL21(DE3), pET45b
T1 sequence: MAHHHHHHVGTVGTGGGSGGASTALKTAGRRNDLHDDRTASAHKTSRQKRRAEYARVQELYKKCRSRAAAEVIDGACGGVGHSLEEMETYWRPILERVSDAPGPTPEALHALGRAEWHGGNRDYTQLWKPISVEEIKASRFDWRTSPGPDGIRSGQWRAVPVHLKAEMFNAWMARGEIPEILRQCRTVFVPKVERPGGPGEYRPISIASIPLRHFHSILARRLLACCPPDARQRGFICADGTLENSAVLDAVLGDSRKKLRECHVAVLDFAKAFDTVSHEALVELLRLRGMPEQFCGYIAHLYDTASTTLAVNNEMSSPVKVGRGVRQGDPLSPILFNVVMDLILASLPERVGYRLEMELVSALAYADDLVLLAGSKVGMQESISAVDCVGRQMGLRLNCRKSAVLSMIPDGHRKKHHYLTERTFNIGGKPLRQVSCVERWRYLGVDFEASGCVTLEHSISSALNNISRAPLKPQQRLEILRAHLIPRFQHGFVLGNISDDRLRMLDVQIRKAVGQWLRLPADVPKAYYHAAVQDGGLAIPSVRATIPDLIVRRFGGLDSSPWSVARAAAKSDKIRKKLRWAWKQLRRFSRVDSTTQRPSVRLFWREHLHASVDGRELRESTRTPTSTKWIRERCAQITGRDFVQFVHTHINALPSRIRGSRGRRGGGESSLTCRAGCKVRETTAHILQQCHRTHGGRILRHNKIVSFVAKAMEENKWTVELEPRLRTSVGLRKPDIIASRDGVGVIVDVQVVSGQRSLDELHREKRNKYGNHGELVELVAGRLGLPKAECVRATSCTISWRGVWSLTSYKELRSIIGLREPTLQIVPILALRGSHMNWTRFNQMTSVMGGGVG

[2] = biological target: MMLV reverse transcriptase (Moloney murine leukemia virus) (UniProt P03355); experiment: activity assay; settings: purified recombinant protein, protein details: Clontech
[3] = conversion with P173 acceptor, 30 C, qPCR

GGAUCCUCUAGAGUCGACCUGCAGGCAUGCAAGCUUGGCACUGGCCGUCGUUUUACAACGUCGUGACUGGGAAAACCCUGGCGUUACCCAACUUAAUCGCCUUGCAGCACAUCCCCCUUUCGCCAGCUGGCGUAAUAGCGAAGAGGCCCGCACCGAUCGCCCUUCCCAACAGUUGCGCAGCCUGAAUGGCGAAUGGCGCCUGAUGCGGUAUUUUCUCCUUACGCAUCUGUGCGGUAUUUCACACCGCAUAUGGUGCACUCUCAGUACAAUCUGCUCUGAUGCCGCAUAGUUAAGCCAGCCCCGACACCCGCCAACACCCGCUGACGCGCCCUGACGGGCUUGUCUGCUCCCGGCAUCCGCUUACAGACAAGCUGUGACCGUCUCCGGGAGCUGCAUGUGUCAGAGGUUUUCACCGUCAUCACCGAAACGCGCGAGACGAAAGGGCCUCGUGAUACGCCUAUUUUUAUAGGUUAAUGUCAUGAUAAUAAUGGUUUCUUAGACGUCAGGUGGCACUUUUCGGGGAAAUGUGCGCGGAACCCCUAUUUGUUUAUUUUUCUAAAUACAUUCAAAUAUGUAUCCGCUCAUGAGACAAUAACCCUG / CAGGGTTATTGTCTCATGAGCG [600 bp RNA/P172 primer (Example 6)]
activity on this sequence [1, 3]: active

GGAUCCUCUAGAGUCGACCUGCAGGCAUGCAAGCUUGGCACUGGCCGUCGUUUUACAACGUCGUGACUGGGAAAACCCUGGCGUUACCCAACUUAAUCGCCUUGCAGCACAUCCCCCUUUCGCCAGCUGGCGUAAUAGCGAAGAGGCCCGCACCGAUCGCCCUUCCCAACAGUUGCGCAGCCUGAAUGGCGAAUGGC / GCCATTCGCCATTCAGGCTGC [200 bp RNA/P170 primer (Example 6)]
activity on this sequence [1, 3]: active

AATGATACGGCGACCACCGAGATCTACACTCTTTCCCTACACGACGCTCTTCCGATCT [P188 DNA oligonucleotide acceptor]
activity on this sequence ([1]; template jumping to DNA P188, 30 C, single-stranded DNA): active

GTTAATAACGAAATGAGCAGCCGGG [P181 TSO acceptor]
activity on this sequence ([2]; last three G are ribonucleotides (rGrGrG), no apparent template jumping product, 42 C): not active

GGAUCCUCUAGAGUCGACCUGCAGGCAUGCAAGCUUGGCACUGGCCGUCGUUUUACAACGUCGUGACUGGGAAAACCCUGGCGUUACCCAACUUAAUCGCCUUGCAGCACAUCCCCCUUUCGCCAGCUGGCGUAAUAGCGAAGAGGCCCGCACCGAUCGCCCUUCCCAACAGUUGCGCAGCCUGAAUGGCGAAUGGCGCCUGAUGCGGUAUUUUCUCCUUACGCAUCUGUGCGGUAUUUCACACCGCAUAUGGUGCACUCUCAGUACAAUCUGCUCUGAUGCCGCAUAGUUAAGCCAGCCCCGACACCCGCCAACACCCGCUGACGCGCCCUGACGGGCUUGUCUGCUCCCGGCAUCCGCUUACAGACAAGCUGUGACCGUCUCCGGGAGCUGCAUGUGUCAGAGGUUUUCACCGUCAUCACCGAAACGCGCGAGACGAAAGGGCCUCGUGAUACGCCUAUUUUUAUAGGUUAAUGUCAUGAUAAUAAUGGUUUCUUAGACGUCAGGUGGCACUUUUCGGGGAAAUGUGCGCGGAACCCCUAUUUGUUUAUUUUUCUAAAUACAUUCAAAUAUGUAUCCGCUCAUGAGACAAUAACCCUG / CAGGGTTATTGTCTCATGAGCG [600 bp RNA/P172 primer (Example 5)]
activity on this sequence ([2]; lower conversion than R2 with P181 TSO, 42 C, qPCR): less active

CAGUCAGUCAGUCAGUCAGUGCCAAAUGCCUCGUCAUC [P173 RNA acceptor]
activity on this sequence ([1]; template jumping to P173, optimum 300 mM NaCl, 5 mM MgCl2): active

AATGATACGGCGACCACCGAGATCTACACTCTTTCCCTACACGACGCTCTTCCGATCT / AGATCGGAAGAGCGTCGTGTAG [P188 DNA template/P189 DNA primer]
activity on this sequence ([1]; extension on DNA template, 30 C 1 h): active

GGAUCCUCUAGAGUCGACCUGCAGGCAUGCAAGCUUGGCACUGGCCGUCGUUUUCAACGUCGUGACUGGGAAAACCCUGGCGUUACCCAACUUAAUCGCCUUGCAGCACAUCCCCCUUUCGCCAGCUGGCGUAAUAGCGAAGAGGCCCGCACCGAUCGCCCUUCCCAACAGUUGCGCAGCCUGAAUGGCGAAUGGC / CACGACGTTGTAAAACGACGGC [200 bp RNA/P187 primer]
activity on this sequence ([1]; template copied and jump to P173 acceptor, 30 C, PCR readout): active

CAGUCAGUCAGUCAGUCAGUGCCAAAUGCCUCGUCAUC / TGATGACGAGGCATTTGGC [P173 RNA template/P174 DNA primer]
activity on this sequence ([1]; extension optimum at 300 mM NaCl, 5 mM MgCl2, pH 7.5, room temperature, label: 5' 6-FAM on primer): active | activity on this sequence ([2]; primer extension, 42 C 1 h, label: 5' 6-FAM on primer): active

Source: patent publication US20220235395
